Source: US20230183323A1 (BROWN UNIVERSITY, priority 2020, published 2023)
Where two headings read alike, the source gives them in different places. At least one structure is not confirmed: it was looked up by name or label, or the drawing left a doubt.

Tests used:
[1] = system: serine phosphorylation of CHI3L1 in U87 cells; assay: Co-IP/Immunoblot of CHI3L1 phosphorylation in U87 cells; type: cell-based; conditions: flavopiridol 50 nM unless otherwise indicated, time-dependent and dose-dependent
Protocol: U87 cells that endogenously express all components of chitosome were subjected to Co-IP/Immunoblot assays after Pan-CDK inhibitor flavopiridol treatment. Flavopiridol was used at 50 nM unless otherwise indicated. Hr, hours.

Covid-19 = conditions: cited from earlier work

| SMILES | serine phosphorylation of CHI3L1 [1] | reduction of 28-day mortality rates (Covid-19; patients not receiving respiratory support) | reduction of 28-day mortality rates (Covid-19; patients receiving invasive mechanical ventilation or oxygen) |
| --- | --- | --- | --- |
| CCc1cnn2c(NCc3ccc[n+]([O-])c3)cc(N3CCCC[C@H]3CCO)nc12 [Dinaciclib] | variable degree of phosphorylation changes | – | – |
| CC(=O)c1c(C)c2cnc(Nc3ccc(N4CCNCC4)cn3)nc2n(C2CCCC2)c1=O [Palbociclib] | variable degree of phosphorylation changes | – | – |
| C[C@@H]1C[C@H]2[C@@H]3CCC4=CC(=O)C=C[C@]4(C)[C@@]3(F)[C@@H](O)C[C@]2(C)[C@@]1(O)C(=O)CO [Dexamethasone] | – | not among patients not receiving respiratory support | one third |
